From the supplement of paper PMC12067093, “Discovery and optimisation of a covalent ligand for TRIM25 and its application to targeted protein ubiquitination” (Chemical Science, 2025)
Some of the results follow.

By UniProt entry, the sequences of proteins in these tests, tags left out. Where a name states a change or a piece, a line headed by the entry shows the natural chain unless it says otherwise.
UniProt Q9UHD1: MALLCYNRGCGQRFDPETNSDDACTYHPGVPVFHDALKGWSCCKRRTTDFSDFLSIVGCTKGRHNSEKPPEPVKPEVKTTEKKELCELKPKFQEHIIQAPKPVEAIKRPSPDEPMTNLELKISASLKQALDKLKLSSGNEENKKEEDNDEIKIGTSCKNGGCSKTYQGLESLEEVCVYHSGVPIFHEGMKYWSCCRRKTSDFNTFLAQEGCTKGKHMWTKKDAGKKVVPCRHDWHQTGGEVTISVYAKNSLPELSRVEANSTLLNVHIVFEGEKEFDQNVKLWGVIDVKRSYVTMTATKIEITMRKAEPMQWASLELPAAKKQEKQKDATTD
UniProt Q13111, whole entry, looked up: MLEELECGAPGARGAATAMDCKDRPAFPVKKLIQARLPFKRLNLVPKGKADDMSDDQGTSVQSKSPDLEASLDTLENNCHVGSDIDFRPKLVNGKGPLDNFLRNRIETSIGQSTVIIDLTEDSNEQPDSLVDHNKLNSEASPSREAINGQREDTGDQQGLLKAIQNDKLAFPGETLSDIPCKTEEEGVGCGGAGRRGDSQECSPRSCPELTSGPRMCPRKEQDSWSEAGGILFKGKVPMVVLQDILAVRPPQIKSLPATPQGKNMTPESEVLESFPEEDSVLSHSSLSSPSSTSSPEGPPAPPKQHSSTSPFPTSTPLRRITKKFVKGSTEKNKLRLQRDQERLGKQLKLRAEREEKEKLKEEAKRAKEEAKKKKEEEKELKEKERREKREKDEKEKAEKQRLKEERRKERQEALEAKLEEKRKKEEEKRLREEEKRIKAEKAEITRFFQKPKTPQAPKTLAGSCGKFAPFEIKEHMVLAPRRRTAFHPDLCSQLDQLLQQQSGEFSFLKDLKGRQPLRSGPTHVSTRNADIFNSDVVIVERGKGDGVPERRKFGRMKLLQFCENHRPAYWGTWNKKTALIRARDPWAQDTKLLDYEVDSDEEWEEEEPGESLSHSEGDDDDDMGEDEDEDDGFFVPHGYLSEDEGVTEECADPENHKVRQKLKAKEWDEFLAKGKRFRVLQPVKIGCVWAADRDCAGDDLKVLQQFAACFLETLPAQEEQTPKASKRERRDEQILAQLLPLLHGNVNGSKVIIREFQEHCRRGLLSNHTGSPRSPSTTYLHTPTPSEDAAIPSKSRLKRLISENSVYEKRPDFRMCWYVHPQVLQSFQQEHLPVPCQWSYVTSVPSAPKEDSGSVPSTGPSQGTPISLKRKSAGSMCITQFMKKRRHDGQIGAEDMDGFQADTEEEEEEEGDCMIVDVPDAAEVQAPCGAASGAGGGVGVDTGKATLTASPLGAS
UniProt Q96RK0: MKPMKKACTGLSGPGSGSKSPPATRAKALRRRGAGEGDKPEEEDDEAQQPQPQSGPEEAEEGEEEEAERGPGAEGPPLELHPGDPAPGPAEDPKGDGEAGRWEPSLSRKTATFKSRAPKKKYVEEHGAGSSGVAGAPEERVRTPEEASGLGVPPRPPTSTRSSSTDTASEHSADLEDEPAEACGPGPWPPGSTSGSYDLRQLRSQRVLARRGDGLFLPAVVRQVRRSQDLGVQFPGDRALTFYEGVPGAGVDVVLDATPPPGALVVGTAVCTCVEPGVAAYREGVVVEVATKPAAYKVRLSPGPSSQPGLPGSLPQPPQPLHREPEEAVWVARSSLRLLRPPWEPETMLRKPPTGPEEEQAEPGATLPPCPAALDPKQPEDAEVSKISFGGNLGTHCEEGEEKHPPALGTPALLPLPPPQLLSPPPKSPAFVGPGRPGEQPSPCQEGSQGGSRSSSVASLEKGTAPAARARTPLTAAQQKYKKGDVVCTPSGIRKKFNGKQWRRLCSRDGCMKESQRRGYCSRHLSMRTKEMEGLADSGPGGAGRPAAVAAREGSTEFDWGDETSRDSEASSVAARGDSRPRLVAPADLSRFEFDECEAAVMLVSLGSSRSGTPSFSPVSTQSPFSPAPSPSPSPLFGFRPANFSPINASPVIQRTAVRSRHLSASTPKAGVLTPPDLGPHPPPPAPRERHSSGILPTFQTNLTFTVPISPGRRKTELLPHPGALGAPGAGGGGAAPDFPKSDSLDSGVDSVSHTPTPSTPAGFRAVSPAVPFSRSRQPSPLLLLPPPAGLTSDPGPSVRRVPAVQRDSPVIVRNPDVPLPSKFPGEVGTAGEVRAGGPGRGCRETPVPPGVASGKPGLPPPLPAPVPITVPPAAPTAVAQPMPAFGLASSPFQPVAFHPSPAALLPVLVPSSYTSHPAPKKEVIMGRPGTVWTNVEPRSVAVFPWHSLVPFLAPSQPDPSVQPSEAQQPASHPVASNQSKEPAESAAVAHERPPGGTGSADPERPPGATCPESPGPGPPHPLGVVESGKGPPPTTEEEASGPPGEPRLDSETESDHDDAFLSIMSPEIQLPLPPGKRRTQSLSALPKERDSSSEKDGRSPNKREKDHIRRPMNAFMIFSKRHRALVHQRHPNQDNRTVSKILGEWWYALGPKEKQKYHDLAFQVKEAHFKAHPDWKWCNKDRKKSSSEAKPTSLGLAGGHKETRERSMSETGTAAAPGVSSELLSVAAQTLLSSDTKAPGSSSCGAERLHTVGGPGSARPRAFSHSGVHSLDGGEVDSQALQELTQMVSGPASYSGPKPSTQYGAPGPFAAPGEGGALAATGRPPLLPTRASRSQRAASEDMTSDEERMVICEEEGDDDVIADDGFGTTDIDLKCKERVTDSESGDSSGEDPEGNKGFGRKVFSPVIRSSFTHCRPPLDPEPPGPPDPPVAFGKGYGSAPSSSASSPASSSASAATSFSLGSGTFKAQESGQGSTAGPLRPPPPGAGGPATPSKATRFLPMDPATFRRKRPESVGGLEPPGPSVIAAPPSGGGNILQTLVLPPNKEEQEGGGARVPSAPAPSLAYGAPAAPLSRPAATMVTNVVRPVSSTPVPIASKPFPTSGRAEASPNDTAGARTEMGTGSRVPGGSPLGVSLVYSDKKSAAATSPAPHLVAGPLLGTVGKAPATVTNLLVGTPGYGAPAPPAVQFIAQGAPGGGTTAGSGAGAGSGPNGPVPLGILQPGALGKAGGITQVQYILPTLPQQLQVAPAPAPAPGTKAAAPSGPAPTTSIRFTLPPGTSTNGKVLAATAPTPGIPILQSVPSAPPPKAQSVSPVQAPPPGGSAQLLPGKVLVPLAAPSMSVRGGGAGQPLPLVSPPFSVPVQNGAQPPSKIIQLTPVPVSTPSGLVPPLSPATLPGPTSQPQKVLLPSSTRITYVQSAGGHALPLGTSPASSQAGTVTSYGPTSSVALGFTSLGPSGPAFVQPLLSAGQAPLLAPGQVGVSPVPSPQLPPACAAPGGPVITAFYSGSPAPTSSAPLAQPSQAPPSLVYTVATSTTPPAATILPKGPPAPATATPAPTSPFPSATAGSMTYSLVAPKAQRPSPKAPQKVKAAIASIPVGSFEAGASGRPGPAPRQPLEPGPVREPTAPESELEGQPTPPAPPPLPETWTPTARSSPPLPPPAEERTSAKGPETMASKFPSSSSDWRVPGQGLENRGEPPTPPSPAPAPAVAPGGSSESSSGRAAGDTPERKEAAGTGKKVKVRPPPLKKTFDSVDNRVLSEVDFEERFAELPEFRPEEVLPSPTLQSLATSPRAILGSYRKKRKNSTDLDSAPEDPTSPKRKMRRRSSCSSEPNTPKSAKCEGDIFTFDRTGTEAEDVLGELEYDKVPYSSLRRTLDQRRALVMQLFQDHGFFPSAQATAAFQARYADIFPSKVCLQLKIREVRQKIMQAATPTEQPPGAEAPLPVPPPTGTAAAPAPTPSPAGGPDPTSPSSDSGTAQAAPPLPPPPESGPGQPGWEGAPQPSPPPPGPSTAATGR
UniProt Q99828: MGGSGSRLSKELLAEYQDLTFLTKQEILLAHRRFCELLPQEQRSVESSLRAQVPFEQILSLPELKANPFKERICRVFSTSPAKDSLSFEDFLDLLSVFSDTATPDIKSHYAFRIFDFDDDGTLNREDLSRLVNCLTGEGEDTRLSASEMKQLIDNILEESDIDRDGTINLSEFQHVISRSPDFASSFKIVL
UniProt O76071: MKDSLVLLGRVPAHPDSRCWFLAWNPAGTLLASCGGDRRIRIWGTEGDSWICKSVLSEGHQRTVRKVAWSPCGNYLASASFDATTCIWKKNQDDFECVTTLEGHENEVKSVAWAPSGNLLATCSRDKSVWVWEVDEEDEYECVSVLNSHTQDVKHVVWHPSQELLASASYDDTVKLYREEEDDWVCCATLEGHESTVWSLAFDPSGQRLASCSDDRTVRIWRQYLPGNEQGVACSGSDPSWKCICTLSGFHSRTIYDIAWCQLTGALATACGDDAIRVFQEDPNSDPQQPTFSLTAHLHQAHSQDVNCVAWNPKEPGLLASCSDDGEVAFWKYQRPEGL
UniProt Q00610: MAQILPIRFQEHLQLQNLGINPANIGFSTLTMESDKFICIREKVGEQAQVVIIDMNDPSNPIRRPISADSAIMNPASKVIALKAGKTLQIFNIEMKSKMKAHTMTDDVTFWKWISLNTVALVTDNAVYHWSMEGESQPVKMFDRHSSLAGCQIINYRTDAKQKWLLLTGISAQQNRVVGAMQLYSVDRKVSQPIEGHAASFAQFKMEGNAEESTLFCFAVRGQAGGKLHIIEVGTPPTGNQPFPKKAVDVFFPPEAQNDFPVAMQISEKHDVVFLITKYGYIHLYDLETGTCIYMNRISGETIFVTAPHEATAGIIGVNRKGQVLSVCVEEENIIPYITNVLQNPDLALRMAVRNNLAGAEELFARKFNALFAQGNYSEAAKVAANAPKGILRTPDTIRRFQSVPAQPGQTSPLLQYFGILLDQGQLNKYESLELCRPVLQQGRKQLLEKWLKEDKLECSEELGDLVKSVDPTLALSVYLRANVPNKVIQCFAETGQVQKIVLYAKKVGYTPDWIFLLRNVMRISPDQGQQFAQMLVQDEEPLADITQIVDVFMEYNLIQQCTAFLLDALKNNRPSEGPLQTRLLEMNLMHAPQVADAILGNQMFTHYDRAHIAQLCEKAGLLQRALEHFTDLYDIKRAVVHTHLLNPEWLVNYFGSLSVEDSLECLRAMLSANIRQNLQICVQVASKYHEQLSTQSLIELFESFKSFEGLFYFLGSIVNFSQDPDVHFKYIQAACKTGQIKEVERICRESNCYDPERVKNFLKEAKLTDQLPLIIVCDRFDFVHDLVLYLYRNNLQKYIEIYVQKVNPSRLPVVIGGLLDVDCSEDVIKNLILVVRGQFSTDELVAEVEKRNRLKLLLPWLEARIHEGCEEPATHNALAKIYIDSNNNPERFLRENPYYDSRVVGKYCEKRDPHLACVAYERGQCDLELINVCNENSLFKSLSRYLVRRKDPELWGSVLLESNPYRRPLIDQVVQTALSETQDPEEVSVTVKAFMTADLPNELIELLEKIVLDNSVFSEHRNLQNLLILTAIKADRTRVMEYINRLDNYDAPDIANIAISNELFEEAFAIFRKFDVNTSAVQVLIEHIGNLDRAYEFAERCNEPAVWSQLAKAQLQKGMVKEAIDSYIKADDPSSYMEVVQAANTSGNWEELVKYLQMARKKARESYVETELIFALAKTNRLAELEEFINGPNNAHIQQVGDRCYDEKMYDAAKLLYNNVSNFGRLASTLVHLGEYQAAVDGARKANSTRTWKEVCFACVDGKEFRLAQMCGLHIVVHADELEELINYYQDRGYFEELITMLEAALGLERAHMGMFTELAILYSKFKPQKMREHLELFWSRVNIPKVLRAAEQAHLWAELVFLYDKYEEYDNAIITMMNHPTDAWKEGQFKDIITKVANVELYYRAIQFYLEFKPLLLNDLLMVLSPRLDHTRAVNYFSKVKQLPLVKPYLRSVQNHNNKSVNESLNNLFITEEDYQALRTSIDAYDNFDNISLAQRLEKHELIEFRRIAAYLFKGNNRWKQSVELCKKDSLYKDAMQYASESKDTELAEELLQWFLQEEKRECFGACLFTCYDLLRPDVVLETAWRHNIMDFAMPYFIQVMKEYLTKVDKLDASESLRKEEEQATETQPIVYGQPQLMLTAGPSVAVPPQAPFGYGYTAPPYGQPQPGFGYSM
UniProt Q5EBM0: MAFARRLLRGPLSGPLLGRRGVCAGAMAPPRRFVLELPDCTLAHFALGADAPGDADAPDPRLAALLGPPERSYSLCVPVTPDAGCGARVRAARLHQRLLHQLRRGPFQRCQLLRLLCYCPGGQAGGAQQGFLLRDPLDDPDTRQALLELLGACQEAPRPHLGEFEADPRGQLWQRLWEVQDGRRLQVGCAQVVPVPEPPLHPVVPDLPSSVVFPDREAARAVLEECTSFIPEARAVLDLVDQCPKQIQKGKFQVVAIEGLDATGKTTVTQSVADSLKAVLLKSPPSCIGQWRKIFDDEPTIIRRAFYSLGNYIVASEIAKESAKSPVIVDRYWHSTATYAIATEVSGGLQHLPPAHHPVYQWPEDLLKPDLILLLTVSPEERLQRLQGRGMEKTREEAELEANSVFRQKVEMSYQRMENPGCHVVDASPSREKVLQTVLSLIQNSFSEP

Compound: Cc1cc(ccc1-c1ccccc1)C(=O)N1CCCN(CC1)C(=O)CCl [compound 10]
Experiment: probe-labelled cysteine peptide fold change vs DMSO (competition) (log2 fold change); higher = less target engagement (more negative = stronger competition)
Conditions: 10 µM; THP-1; incubation time: 4 h
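Further: competitive profiling in live THP-1 cells: cysteine peptides tagged with an iodoacetamide desthiobiotin (IA-DTB) probe, intensity after compound treatment relative to DMSO-treated cells.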

Row | Target | probe-labelled cysteine peptide fold change
1 | CHD8_Q9HCK8_1913_LALCQPPGPELPK (UniProt Q9HCK8) | -0.261
2 | CGAS_Q8N884_199_CDSAFR (UniProt Q8N884) | -0.166
3 | CHORDC1_Q9UHD1_5_ALLCYNR (UniProt Q9UHD1) | -0.168
4 | CLTCL1_P53675_617_AHIAQLCEK (UniProt P53675) | -0.0386
5 | CHAF1A_Q13111_7_MLEELECGAPGAR (UniProt Q13111) | 0.183
6 | CHERP_Q8IWX8_190_SPPHCELMAGHLR (UniProt Q8IWX8) | -0.157
7 | CIC_Q96RK0_506_SSFTHCRPPLDPEPPGPPDPPVAFGK (UniProt Q96RK0) | -0.257
8 | CIZ1_Q9ULV3_687_QSLRPFCTVCNR (UniProt Q9ULV3) | -0.0792
9 | CHD8_Q9HCK8_1116_EACHIIPHDFHLQAMVR (UniProt Q9HCK8) | 0.0841
10 | CIC_Q96RK0_336_APGSSSCGAER (UniProt Q96RK0) | -0.332
11 | CHKB_Q9Y259_85_CSLPDHLPSVGEEPR (UniProt Q9Y259) | 0.146
12 | CIB1_Q99828_134_LVNCLTGEGEDTR (UniProt Q99828) | 0.0161
13 | CLCC1_Q96S66_60_DVSPDLSCADEISECYHK (UniProt Q96S66) | -0.244
14 | CIAO1_O76071_34_CWFLAWNPAGTLLASCGGDRR (UniProt O76071) | -0.326
15 | CLTC_Q00610_824_VNPSRLPVVIGGLLDVDCSEDVIK (UniProt Q00610) | 0.122
16 | CMPK2_Q5EBM0_226_AVLEECTSFIPEAR (UniProt Q5EBM0) | -0.133
17 | CLTC_Q00610_1102_CNEPAVWSQLAK (UniProt Q00610) | 0.143

4 entries from above in a different format.
Row,Target,probe-labelled cysteine peptide fold change
5,CHAF1A_Q13111_7_MLEELECGAPGAR (UniProt Q13111),0.183
14,CIAO1_O76071_34_CWFLAWNPAGTLLASCGGDRR (UniProt O76071),-0.326
15,CLTC_Q00610_824_VNPSRLPVVIGGLLDVDCSEDVIK (UniProt Q00610),0.122
16,CMPK2_Q5EBM0_226_AVLEECTSFIPEAR (UniProt Q5EBM0),-0.133
